According to the supplement of paper PMC6411743:
± gives the standard deviation of the averaged measurements. Only a part is listed here, and it is no random draw.

The chains behind the UniProt entries cited, without tags or fusion partners. Where a name states a change or a piece, a line headed by the entry shows the natural chain unless it says otherwise.
UniProt Q9Y5J7: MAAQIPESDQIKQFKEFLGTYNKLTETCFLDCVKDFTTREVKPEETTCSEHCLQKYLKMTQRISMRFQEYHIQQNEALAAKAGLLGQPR
UniProt Q9Y5Z7: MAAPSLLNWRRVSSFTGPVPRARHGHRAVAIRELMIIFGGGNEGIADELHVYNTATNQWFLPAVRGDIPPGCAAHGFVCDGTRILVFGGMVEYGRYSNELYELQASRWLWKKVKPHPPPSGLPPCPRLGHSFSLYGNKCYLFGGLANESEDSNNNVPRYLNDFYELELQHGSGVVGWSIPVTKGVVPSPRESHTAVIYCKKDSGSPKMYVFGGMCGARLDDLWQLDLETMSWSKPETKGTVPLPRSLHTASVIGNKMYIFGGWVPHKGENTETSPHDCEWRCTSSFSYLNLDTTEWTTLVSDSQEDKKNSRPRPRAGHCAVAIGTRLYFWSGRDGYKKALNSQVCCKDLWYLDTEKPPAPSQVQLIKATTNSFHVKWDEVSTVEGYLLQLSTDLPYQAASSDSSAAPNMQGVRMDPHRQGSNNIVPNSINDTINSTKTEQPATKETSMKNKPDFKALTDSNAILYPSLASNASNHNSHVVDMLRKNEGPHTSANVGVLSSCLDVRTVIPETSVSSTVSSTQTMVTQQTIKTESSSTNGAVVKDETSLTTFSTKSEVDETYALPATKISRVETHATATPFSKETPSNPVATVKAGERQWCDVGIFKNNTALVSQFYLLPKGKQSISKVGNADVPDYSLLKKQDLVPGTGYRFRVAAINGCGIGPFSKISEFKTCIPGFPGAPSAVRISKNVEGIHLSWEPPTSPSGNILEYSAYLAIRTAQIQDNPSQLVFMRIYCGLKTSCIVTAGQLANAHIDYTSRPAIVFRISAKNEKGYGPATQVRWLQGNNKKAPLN
UniProt Q9Y5K8, whole entry: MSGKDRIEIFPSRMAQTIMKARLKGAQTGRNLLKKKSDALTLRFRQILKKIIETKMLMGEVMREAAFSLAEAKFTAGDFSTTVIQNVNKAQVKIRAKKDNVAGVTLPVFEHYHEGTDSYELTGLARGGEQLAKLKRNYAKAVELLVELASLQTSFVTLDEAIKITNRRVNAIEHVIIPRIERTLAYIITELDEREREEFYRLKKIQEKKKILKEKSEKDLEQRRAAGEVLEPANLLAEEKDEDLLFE
UniProt Q9Y5Y5: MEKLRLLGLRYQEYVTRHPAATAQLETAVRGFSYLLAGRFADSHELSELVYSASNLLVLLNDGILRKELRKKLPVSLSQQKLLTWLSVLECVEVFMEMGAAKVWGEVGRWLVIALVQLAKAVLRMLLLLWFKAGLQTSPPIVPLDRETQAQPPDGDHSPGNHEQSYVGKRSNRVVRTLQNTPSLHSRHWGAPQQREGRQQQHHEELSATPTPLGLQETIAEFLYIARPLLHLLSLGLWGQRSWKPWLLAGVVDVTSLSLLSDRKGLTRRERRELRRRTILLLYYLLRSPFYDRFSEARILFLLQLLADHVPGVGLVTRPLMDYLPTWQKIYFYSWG
UniProt Q9Y4Z0: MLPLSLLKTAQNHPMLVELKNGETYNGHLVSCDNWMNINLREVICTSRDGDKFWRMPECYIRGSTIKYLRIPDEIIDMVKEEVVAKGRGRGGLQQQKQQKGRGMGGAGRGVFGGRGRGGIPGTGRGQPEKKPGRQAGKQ
UniProt Q9Y462: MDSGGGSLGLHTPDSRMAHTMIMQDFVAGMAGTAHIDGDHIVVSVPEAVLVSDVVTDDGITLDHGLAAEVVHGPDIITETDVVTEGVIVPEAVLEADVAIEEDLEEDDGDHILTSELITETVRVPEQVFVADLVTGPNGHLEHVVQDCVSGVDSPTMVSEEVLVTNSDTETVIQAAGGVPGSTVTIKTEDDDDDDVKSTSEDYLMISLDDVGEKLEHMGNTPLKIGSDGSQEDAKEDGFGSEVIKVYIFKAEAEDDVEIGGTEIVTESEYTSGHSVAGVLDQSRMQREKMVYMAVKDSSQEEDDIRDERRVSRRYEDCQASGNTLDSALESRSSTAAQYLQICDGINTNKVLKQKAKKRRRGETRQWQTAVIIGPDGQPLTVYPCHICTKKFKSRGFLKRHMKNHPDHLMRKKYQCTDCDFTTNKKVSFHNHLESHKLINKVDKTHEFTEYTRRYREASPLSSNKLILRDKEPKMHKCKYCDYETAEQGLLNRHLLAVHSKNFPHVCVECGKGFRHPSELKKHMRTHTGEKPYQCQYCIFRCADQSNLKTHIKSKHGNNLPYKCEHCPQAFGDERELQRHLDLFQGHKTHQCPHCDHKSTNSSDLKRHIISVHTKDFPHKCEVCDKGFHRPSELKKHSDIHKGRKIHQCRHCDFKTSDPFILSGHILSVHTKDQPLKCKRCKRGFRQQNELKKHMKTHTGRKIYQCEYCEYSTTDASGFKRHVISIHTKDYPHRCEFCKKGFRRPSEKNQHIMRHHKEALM
UniProt Q9Y535: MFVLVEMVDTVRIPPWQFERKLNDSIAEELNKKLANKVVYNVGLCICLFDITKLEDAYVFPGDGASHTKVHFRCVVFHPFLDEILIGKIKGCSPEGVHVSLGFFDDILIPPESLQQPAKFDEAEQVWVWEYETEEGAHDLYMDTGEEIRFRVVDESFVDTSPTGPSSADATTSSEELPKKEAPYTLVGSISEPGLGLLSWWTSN
UniProt Q9Y6D6: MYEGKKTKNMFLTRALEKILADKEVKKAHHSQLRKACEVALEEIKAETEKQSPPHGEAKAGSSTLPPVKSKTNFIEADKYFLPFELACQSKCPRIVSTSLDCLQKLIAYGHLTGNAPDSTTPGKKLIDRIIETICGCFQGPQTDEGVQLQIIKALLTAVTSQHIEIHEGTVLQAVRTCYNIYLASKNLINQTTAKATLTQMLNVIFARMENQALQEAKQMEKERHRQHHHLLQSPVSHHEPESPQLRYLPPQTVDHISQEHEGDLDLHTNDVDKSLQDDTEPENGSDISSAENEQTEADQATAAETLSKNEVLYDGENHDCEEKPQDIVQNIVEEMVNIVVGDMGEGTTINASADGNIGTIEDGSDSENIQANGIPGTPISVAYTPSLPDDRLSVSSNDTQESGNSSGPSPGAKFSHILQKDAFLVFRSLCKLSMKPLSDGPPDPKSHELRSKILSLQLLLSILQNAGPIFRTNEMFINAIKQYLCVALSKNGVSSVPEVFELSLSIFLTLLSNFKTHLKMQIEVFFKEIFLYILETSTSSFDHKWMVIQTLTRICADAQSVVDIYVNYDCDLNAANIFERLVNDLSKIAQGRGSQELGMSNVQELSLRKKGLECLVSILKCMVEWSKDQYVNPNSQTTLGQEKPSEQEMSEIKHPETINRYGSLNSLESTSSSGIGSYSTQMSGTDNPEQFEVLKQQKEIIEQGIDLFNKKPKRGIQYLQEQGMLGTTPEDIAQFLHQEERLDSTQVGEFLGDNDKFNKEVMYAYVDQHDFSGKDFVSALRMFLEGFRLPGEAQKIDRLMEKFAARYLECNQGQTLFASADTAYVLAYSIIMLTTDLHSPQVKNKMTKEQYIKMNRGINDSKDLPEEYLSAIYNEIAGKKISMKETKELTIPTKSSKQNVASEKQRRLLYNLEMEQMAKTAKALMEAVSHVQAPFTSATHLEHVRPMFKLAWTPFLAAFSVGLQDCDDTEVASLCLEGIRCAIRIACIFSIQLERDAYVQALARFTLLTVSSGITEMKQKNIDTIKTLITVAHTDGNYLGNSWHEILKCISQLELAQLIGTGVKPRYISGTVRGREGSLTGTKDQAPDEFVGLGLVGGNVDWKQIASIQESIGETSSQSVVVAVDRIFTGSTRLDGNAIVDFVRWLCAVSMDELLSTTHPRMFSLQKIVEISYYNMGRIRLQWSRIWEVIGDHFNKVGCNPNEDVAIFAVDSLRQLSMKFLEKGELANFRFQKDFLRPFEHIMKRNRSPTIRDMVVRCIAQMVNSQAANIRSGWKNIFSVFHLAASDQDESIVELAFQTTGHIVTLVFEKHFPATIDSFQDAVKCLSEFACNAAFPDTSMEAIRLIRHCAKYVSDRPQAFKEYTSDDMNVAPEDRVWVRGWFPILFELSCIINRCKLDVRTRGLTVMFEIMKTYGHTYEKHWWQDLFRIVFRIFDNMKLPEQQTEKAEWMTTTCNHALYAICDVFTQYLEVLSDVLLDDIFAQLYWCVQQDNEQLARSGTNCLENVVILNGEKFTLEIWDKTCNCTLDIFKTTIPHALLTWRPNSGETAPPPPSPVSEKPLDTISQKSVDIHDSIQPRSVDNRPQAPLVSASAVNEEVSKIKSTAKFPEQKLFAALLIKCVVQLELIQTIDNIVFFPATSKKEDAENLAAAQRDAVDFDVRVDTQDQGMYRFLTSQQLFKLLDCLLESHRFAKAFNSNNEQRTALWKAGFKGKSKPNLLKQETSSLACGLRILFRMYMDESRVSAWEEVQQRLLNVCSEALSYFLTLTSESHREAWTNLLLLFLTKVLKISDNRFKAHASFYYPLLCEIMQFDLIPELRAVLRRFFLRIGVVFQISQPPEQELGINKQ
UniProt Q9Y5L4: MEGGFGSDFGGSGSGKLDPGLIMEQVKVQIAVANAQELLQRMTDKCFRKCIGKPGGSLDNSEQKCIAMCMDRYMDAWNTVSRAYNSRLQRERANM
UniProt Q9Y3E2: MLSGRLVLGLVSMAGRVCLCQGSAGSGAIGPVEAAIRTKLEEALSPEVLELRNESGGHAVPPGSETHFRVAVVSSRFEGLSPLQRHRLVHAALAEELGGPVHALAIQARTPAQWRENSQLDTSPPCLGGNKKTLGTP
UniProt Q9Y4D1, whole entry: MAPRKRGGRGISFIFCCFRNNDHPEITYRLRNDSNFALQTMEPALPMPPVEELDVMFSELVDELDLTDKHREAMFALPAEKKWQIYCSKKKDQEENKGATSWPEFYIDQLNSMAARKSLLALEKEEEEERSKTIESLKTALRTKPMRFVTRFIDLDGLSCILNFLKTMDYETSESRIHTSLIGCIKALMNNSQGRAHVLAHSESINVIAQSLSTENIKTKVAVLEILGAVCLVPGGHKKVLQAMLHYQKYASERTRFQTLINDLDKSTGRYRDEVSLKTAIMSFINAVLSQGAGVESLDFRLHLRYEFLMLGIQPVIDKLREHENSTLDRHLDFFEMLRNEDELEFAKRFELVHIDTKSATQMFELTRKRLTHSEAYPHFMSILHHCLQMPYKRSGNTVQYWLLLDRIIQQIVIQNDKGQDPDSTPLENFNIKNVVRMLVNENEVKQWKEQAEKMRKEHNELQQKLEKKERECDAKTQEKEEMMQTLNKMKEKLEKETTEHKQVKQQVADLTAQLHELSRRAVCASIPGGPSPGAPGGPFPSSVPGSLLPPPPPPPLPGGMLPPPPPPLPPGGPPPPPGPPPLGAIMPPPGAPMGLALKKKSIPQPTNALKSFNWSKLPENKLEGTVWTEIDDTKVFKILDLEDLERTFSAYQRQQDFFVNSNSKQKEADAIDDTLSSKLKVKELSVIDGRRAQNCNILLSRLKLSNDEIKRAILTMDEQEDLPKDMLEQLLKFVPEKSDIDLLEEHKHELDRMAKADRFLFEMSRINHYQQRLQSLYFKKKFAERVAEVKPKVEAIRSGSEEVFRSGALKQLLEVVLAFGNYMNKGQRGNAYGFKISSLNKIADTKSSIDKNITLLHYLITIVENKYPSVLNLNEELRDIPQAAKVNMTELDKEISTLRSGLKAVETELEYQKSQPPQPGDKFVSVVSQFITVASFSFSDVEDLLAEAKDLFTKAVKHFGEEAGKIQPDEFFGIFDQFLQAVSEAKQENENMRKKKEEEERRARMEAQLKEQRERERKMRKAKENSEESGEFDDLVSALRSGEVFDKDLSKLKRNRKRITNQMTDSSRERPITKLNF
UniProt Q9Y487, whole entry: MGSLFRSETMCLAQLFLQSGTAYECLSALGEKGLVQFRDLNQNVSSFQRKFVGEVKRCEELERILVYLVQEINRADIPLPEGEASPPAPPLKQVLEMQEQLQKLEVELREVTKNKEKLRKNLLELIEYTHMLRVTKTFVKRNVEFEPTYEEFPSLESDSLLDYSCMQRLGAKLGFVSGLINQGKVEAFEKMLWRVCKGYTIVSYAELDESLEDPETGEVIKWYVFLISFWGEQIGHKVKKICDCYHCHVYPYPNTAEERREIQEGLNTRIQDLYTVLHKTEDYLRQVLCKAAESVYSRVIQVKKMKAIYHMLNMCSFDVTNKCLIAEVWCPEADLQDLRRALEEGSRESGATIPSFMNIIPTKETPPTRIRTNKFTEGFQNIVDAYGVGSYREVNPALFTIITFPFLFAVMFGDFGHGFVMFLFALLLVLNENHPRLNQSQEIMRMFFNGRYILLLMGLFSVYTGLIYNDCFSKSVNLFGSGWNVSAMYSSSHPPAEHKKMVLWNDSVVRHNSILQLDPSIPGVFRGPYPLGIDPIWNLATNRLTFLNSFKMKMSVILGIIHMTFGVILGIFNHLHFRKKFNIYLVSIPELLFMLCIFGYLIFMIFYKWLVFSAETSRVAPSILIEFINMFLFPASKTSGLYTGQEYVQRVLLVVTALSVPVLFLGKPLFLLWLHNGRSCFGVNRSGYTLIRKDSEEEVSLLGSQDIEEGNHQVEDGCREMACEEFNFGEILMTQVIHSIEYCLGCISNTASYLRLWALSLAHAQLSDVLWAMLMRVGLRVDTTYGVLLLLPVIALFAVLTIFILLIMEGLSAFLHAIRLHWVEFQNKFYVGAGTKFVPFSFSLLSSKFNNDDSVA

Compound: Nc1ncnc2c1ncn2[C@@H]1O[C@H](COP(=O)(O)OP(=O)(O)NP(=O)(O)O)[C@@H](O)[C@H]1O [adenylyl imidodiphosphate]
Assay: NP40-soluble protein abundance relative to vehicle (solubility fold change) (ratio); higher = more soluble protein in presence of AMP-PNP
Outline: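 Values are fold changes against the detergent-processed vehicle, based on vsn-normalised intensities. Jurkat crude lysate was treated at eight concentrations from 0.1 to 10 mM (10 min at room temperature, then 3 min at 37 °C), solubilised with 0.8% NP40 and benzonase, ultracentrifuged and analysed by TMT-labelled LC-MS/MS over three independent experiments.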

Target	NP40-soluble protein abundance (concentration: 1mM)	NP40-soluble protein abundance (concentration: 2mM)	NP40-soluble protein abundance (concentration: 4mM)	NP40-soluble protein abundance (concentration: 6mM)	NP40-soluble protein abundance (concentration: 8mM)	NP40-soluble protein abundance (concentration: 10mM)
DNMT3A (UniProt Q9Y6K1)	0.9995 ± 0.0041	1.02 ± 0.023	1.04 ± 0.026	1.02 ± 0.036	1.037 ± 0.0094	1.058 ± 0.0098
UniProt Q9Y5J7 and related entries	0.976 ± 0.018	0.988 ± 0.03	0.949 ± 0.037	0.887 ± 0.043	0.872 ± 0.02	0.89 ± 0.01
UniProt Q9Y678	1.01 ± 0.016	0.955 ± 0.067	0.997 ± 0.013	0.955 ± 0.03	0.953 ± 0.026	0.936 ± 0.039
SNX8 (UniProt Q9Y5X2)	0.975 ± 0.026	0.944 ± 0.054	0.904 ± 0.017	0.954 ± 0.031	0.95 ± 0.03	0.938 ± 0.048
HCFC2 (UniProt Q9Y5Z7)	1.01 ± 0.014	0.983 ± 0.036	1.04 ± 0.02	1.02 ± 0.031	1.03 ± 0.014	1.03 ± 0.023
ATP6V1D (UniProt Q9Y5K8)	0.981 ± 0.025	1.02 ± 0.077	0.973 ± 0.026	0.966 ± 0.03	0.966 ± 0.019	0.989 ± 0.07
UniProt Q9Y5P4 and related entries	0.982 ± 0.019	0.98 ± 0.046	0.962 ± 0.013	0.975 ± 0.029	0.966 ± 0.021	0.9787 ± 0.0092
UniProt Q9Y4E6 and related entries	0.924 ± 0.045	0.946 ± 0.033	0.95 ± 0.019	0.935 ± 0.016	0.931 ± 0.034	0.912 ± 0.068
SAMM50 (UniProt Q9Y512)	0.9168 ± 0.0057	0.823 ± 0.18	0.91 ± 0.14	0.886 ± 0.038	0.973 ± 0.064	0.884 ± 0.15
GTF3C3 (UniProt Q9Y5Q9)	1.02 ± 0.023	1.01 ± 0.02	1.02 ± 0.022	0.938 ± 0.042	0.916 ± 0.042	0.905 ± 0.024
UniProt Q9Y5Y5 and related entries	0.967 ± 0.051	0.97 ± 0.05	0.9611 ± 0.0026	1.04 ± 0.024	1.03 ± 0.032	1.02 ± 0.052
RAPGEF2 (UniProt Q9Y4G8)	1 ± 0.024	1.03 ± 0.053	1.01 ± 0.025	0.9776 ± 0.00032	0.9466 ± 0.0091	0.982 ± 0.022
UniProt Q9Y6J0 and related entries	0.976 ± 0.031	0.995 ± 0.012	0.987 ± 0.025	0.986 ± 0.029	0.95 ± 0.023	1.01 ± 0.029
CLIC4 (UniProt Q9Y696)	1.03 ± 0.013	1.05 ± 0.087	1.07 ± 0.057	1.1 ± 0.069	1.09 ± 0.071	1.11 ± 0.1
UniProt Q9Y5T5 and related entries	1.04 ± 0.039	1.09 ± 0.082	1.13 ± 0.085	1.15 ± 0.083	1.17 ± 0.087	1.25 ± 0.11
UniProt Q9Y5P6 and related entries	0.98 ± 0.018	0.888 ± 0.12	0.954 ± 0.039	0.916 ± 0.039	0.909 ± 0.027	0.858 ± 0.017
UniProt Q9Y5Z9 and related entries	0.989 ± 0.042	1.02 ± 0.045	1 ± 0.042	1.005 ± 0.0059	1.03 ± 0.035	1.04 ± 0.031
UniProt Q9Y4Z0 and related entries	0.998 ± 0.061	1.1 ± 0.11	1.06 ± 0.079	1.09 ± 0.12	1.08 ± 0.084	1.14 ± 0.13
ARIH1 (UniProt Q9Y4X5)	0.984 ± 0.031	0.954 ± 0.041	0.976 ± 0.044	0.938 ± 0.023	0.981 ± 0.02	0.933 ± 0.048
SH3BP1 (UniProt Q9Y3L3)	0.993 ± 0.02	1 ± 0.018	1.01 ± 0.031	1.03 ± 0.03	1 ± 0.019	1.03 ± 0.0093

Target	NP40-soluble protein abundance (concentration: 1mM)	NP40-soluble protein abundance (concentration: 2mM)	NP40-soluble protein abundance (concentration: 4mM)	NP40-soluble protein abundance (concentration: 6mM)	NP40-soluble protein abundance (concentration: 8mM)	NP40-soluble protein abundance (concentration: 10mM)
ZNF330 (UniProt Q9Y3S2)	1.07 ± 0.032	1.05 ± 0.012	1.04 ± 0.056	1.02 ± 0.015	1.04 ± 0.05	1.02 ± 0.024
UniProt Q9Y6N5	0.965 ± 0.051	0.881 ± 0.099	0.94 ± 0.019	0.923 ± 0.0092	0.941 ± 0.01	0.919 ± 0.018
TMED3 (UniProt Q9Y3Q3)	1.03 ± 0.02	0.959 ± 0.088	0.971 ± 0.019	0.937 ± 0.026	0.98 ± 0.028	0.942 ± 0.045
UniProt Q9Y462 and related entries	1 ± 0.032	1.02 ± 0.037	1.012 ± 0.0034	1.01 ± 0.036	1.024 ± 0.0028	1.02 ± 0.013
TLN2 (UniProt Q9Y4G6)	1.02 ± 0.047	1.06 ± 0.078	1.03 ± 0.025	1.02 ± 0.033	0.963 ± 0.016	1.03 ± 0.015
UniProt Q9Y520 and related entries	1.1 ± 0.013	1.2 ± 0.092	1.2 ± 0.05	1.25 ± 0.12	1.29 ± 0.14	1.41 ± 0.17
NUBP2 (UniProt Q9Y5Y2)	0.995 ± 0.014	0.948 ± 0.061	0.985 ± 0.022	1.01 ± 0.037	1.03 ± 0.018	1.03 ± 0.014
UniProt Q9Y6R1 and related entries	0.986 ± 0.015	1.01 ± 0.02	0.986 ± 0.022	0.988 ± 0.035	0.979 ± 0.028	0.994 ± 0.016
CCDC9 (UniProt Q9Y3X0)	1.03 ± 0.022	1.05 ± 0.06	1.07 ± 0.042	1.06 ± 0.058	1.06 ± 0.016	1.08 ± 0.064
UniProt Q9Y6M7-13|Q9Y6M7-6	0.984 ± 0.024	1.01 ± 0.043	0.996 ± 0.018	0.981 ± 0.033	0.958 ± 0.026	0.9794 ± 0.0076
UniProt Q9Y530	1.03 ± 0.047	1.05 ± 0.052	1.07 ± 0.071	1.06 ± 0.11	1.09 ± 0.083	1.07 ± 0.093
UniProt Q9Y535 and related entries	0.9881 ± 0.0077	0.973 ± 0.033	0.981 ± 0.048	0.974 ± 0.028	0.973 ± 0.022	0.968 ± 0.018
UniProt Q9Y6X9 and related entries	1.1 ± 0.051	1.11 ± 0.017	1.1 ± 0.017	1.09 ± 0.02	1.101 ± 0.0085	1.14 ± 0.034
LRRC42 (UniProt Q9Y546)	1.03 ± 0.027	1.02 ± 0.039	0.989 ± 0.016	1.01 ± 0.051	1 ± 0.029	0.995 ± 0.045
UniProt Q9Y6Q9 and related entries	0.998 ± 0.015	1.06 ± 0.063	1.02 ± 0.022	0.985 ± 0.014	0.985 ± 0.024	1.02 ± 0.043
UniProt Q9Y4F3 and related entries	0.987 ± 0.038	1 ± 0.042	1 ± 0.037	0.992 ± 0.0089	1.01 ± 0.024	1.01 ± 0.02
UniProt Q9Y5S9 and related entries	0.9846 ± 0.0015	0.997 ± 0.059	0.924 ± 0.033	0.961 ± 0.031	0.919 ± 0.025	0.906 ± 0.011
R4GMX3 and related entries (UniProt Q9UBI1)	0.965 ± 0.036	0.951 ± 0.021	0.957 ± 0.018	0.95 ± 0.022	0.95 ± 0.034	0.917 ± 0.019
UniProt Q9Y3I0	0.995 ± 0.022	0.998 ± 0.047	1.01 ± 0.034	1.03 ± 0.03	1.03 ± 0.029	1.05 ± 0.046
TRAPPC1 (UniProt Q9Y5R8)	0.994 ± 0.048	0.918 ± 0.01	1.04 ± 0.026	1.02 ± 0.066	1.09 ± 0.025	0.9883 ± 0.0018

Whole records from above.
LRRC42 (UniProt Q9Y546) reads NP40-soluble protein abundance (concentration: 1mM): 1.03 ± 0.027; NP40-soluble protein abundance (concentration: 2mM): 1.02 ± 0.039; NP40-soluble protein abundance (concentration: 4mM): 0.989 ± 0.016; NP40-soluble protein abundance (concentration: 6mM): 1.01 ± 0.051; NP40-soluble protein abundance (concentration: 8mM): 1 ± 0.029; NP40-soluble protein abundance (concentration: 10mM): 0.995 ± 0.045
CCDC9 (UniProt Q9Y3X0) reads NP40-soluble protein abundance (concentration: 1mM): 1.03 ± 0.022; NP40-soluble protein abundance (concentration: 2mM): 1.05 ± 0.06; NP40-soluble protein abundance (concentration: 4mM): 1.07 ± 0.042; NP40-soluble protein abundance (concentration: 6mM): 1.06 ± 0.058; NP40-soluble protein abundance (concentration: 8mM): 1.06 ± 0.016; NP40-soluble protein abundance (concentration: 10mM): 1.08 ± 0.064

The listing continues.

Target	NP40-soluble protein abundance (concentration: 1mM)	NP40-soluble protein abundance (concentration: 2mM)	NP40-soluble protein abundance (concentration: 4mM)	NP40-soluble protein abundance (concentration: 6mM)	NP40-soluble protein abundance (concentration: 8mM)	NP40-soluble protein abundance (concentration: 10mM)
ARFGEF1 (UniProt Q9Y6D6)	0.991 ± 0.018	0.944 ± 0.013	0.9557 ± 0.0052	0.93 ± 0.025	0.926 ± 0.03	0.921 ± 0.013
RABGAP1 (UniProt Q9Y3P9)	0.985 ± 0.024	1.01 ± 0.058	0.9829 ± 0.0097	0.926 ± 0.028	0.897 ± 0.017	0.926 ± 0.013
MFHAS1 (UniProt Q9Y4C4)	1 ± 0.022	0.988 ± 0.026	0.992 ± 0.025	0.962 ± 0.04	0.998 ± 0.039	1.02 ± 0.029
UniProt Q9Y5Q8 and related entries	0.979 ± 0.024	0.955 ± 0.04	0.973 ± 0.029	0.927 ± 0.048	0.92 ± 0.032	0.911 ± 0.043
TLN1 (UniProt Q9Y490)	1 ± 0.014	1.03 ± 0.056	0.9877 ± 0.0052	0.989 ± 0.018	0.958 ± 0.013	0.987 ± 0.013
UniProt Q9Y3U8	1.06 ± 0.014	1.03 ± 0.014	1.047 ± 0.0097	0.992 ± 0.047	0.884 ± 0.002	1.116 ± 0.008
TIMM13 (UniProt Q9Y5L4)	0.986 ± 0.019	0.999 ± 0.046	0.965 ± 0.022	0.963 ± 0.021	0.983 ± 0.028	0.975 ± 0.022
HEBP2 (UniProt Q9Y5Z4)	0.978 ± 0.012	0.9687 ± 0.0064	0.952 ± 0.023	0.957 ± 0.021	0.964 ± 0.018	0.926 ± 0.042
BOLA1 (UniProt Q9Y3E2)	0.978 ± 0.014	0.965 ± 0.028	0.9709 ± 0.0074	0.98 ± 0.02	0.967 ± 0.01	0.99 ± 0.016
UniProt Q9Y4D1 and related entries	0.967 ± 0.021	1 ± 0.024	1 ± 0.034	0.9671 ± 0.0056	0.947 ± 0.024	0.99 ± 0.041
UniProt V9HW75	1.129 ± 0.011	1.26 ± 0.11	1.19 ± 0.043	1.17 ± 0.023	1.19 ± 0.013	1.15 ± 0.063
UniProt Q9Y5B6 and related entries	1.03 ± 0.048	1.05 ± 0.017	1.07 ± 0.057	1.06 ± 0.051	1.07 ± 0.049	1.14 ± 0.053
ATP6V0A2 (UniProt Q9Y487)	0.981 ± 0.031	0.97 ± 0.021	1.01 ± 0.028	0.982 ± 0.021	0.972 ± 0.013	0.96 ± 0.016
SPIN1 (UniProt Q9Y657)	1.07 ± 0.048	1.09 ± 0.056	1.09 ± 0.056	1.16 ± 0.15	1.17 ± 0.09	1.2 ± 0.12
WASF2 (UniProt Q9Y6W5)	1 ± 0.058	1.05 ± 0.019	1 ± 0.042	0.974 ± 0.055	0.957 ± 0.056	0.986 ± 0.043
UniProt Q9Y4B5 and related entries	1.01 ± 0.022	1 ± 0.0039	0.984 ± 0.027	0.992 ± 0.0033	1 ± 0.015	0.995 ± 0.012
RBM19 (UniProt Q9Y4C8)	1.04 ± 0.024	1.12 ± 0.069	1.15 ± 0.031	1.18 ± 0.031	1.21 ± 0.033	1.3 ± 0.013
UniProt Q9Y3I1 and related entries	0.967 ± 0.023	0.962 ± 0.018	0.958 ± 0.022	0.927 ± 0.014	0.9811 ± 0.0075	0.9607 ± 0.0071
